Source: PubChem BioAssay AID1224828 (NIAID, 2016)
Test: 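Regulators linking TLR4 signalling to p65 nuclear translocation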 (primary screen). Cells: mouse RAW264.7 G9 macrophage reporter cells (GFP-p65, Tnf promoter-mCherry). Reagent: siRNA pool against mouse genes, 100 nM. Duration: 2 days siRNA transfection, then 40 min LPS before fixation. Treatment: LPS (Salmonella minnesota R595) at 10 ng/ml. Measurement: 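Microscopy ratio of nuclear to perinuclear-ring GFP-p65 signal, scaled to the plate median; gene score is the average of two replicate robust z-scores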. Scale: p65 translocation robust z-score: higher = more nuclear NF-kappaB p65 after LPS than the plate median; nuclear/cytoplasmic p65 ratio: higher = more nuclear NF-kappaB p65. Active means: 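Called active when z exceeds 3.3 or falls under -1.56 (median of Tlr4 controls), giving activity score of at least 50; no calls for control wells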. Calls: active = hit (p65 shift raised or lowered); inactive = no clear change.
The deposit covers about 17,000 reagents; below is a part drawn at random. 762 of all reagents (4.5%) were called active. 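Active calls include both raised and lowered p65 entry, mostly lowered; wells with fewer than 50 cells lack a z-score.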 The raw values are shown without normalisation. A number with no mark means an inactive call.

target gene | p65 translocation robust z-score | nuclear/cytoplasmic p65 ratio, rep 1 | nuclear/cytoplasmic p65 ratio, rep 2 | low cell count flag
Fam228b (family with sequence similarity 228, member B) | 0.36 | 1.32 | 1.58 | enough cells to score
Pttg1 (pituitary tumor-transforming gene 1) | 0.45 | 1.6 | 1.56 | enough cells to score
Gpa33 (glycoprotein A33 transmembrane) | 1.71 | 1.86 | 1.83 | enough cells to score
Trim12c (tripartite motif-containing 12C) | -1.02 | 1.46 | 1.46 | enough cells to score
Defb41 (defensin beta 41) | – | 1.21 | 1.4 | fewer than 50 cells per well; well left out of scoring
Ppp1cb (protein phosphatase 1 catalytic subunit beta) | 0.36 | 1.58 | 1.43 | enough cells to score
Drosha (drosha, ribonuclease type III) | -2.63 (active) | 1.19 | 0.967 | enough cells to score
4933427D14Rik (RIKEN cDNA 4933427D14 gene) | – | 1.31 | 1.4 | fewer than 50 cells per well; well left out of scoring
Cabp1 (calcium binding protein 1) | -0.24 | 1.58 | 1.58 | enough cells to score
Akt2 (Akt serine/threonine kinase 2) | 0.1 | 1.8 | 1.4 | enough cells to score
Serpine2 (serine (or cysteine) peptidase inhibitor, clade E, member 2) | -2.15 (active) | 1.29 | 1.2 | enough cells to score
Or8k40 (olfactory receptor family 8 subfamily K member 40) | 1.02 | 1.83 | 1.71 | enough cells to score
Tfdp1 (transcription factor Dp 1) | 0.08 | 1.46 | 1.6 | enough cells to score
Hgd (homogentisate 1, 2-dioxygenase) | -0.72 | 1.3 | 1.32 | enough cells to score
Kcnmb4 | 2.65 | 1.76 | 1.79 | enough cells to score
Tmem216 (transmembrane protein 216) | -0.88 | 1.2 | 1.14 | enough cells to score
Sun3 (Sad1 and UNC84 domain containing 3) | – | 1.22 | 1.57 | fewer than 50 cells per well; well left out of scoring
Elovl4 (ELOVL fatty acid elongase 4) | -1.96 (active) | 1.33 | 1.3 | enough cells to score
Hoxc12 (homeobox C12) | 1.82 | 1.92 | 1.81 | enough cells to score
Psmf1 (proteasome (prosome, macropain) inhibitor subunit 1) | – | 1.43 | 1.22 | fewer than 50 cells per well; well left out of scoring
Flna (filamin, alpha) | -1.15 | 1.26 | 1.17 | enough cells to score
Foxk2 (forkhead box K2) | -0.05 | 1.57 | 1.65 | enough cells to score
Mrps11 (mitochondrial ribosomal protein S11) | 0.21 | 1.43 | 1.37 | enough cells to score
Fam98b (family with sequence similarity 98, member B) | -1.13 | 1.32 | 1.24 | enough cells to score

Copied from the list.
Value of Kcnmb4 under “nuclear/cytoplasmic p65 ratio, rep 2”: 1.79
Entry for Tmem216 (transmembrane protein 216) under “low cell count flag”: enough cells to score
Entry of Cabp1 (calcium binding protein 1) under “low cell count flag”: enough cells to score
Hgd (homogentisate 1, 2-dioxygenase), nuclear/cytoplasmic p65 ratio, rep 2: 1.32
